In the data set the test system is BAF complex subunits and histone proteins. In words: Mass spectrometry proteomics of purified HA-SS18 WT and HA-SS18-SSX1 complexes (Tables 5A-5E). Also on record: species or system human. As to conditions: HEK-293T.
Setting [1] is: HA-SS18SSX1_NE_peptides (Table 5B), HA-SS18-SSX1 BAF complex purification from soluble nuclear extract.
Setting [2] is: HA-SS18WT_NE_peptides: proteins co-purified with HA-SS18 WT from nuclear extract (NE).
Setting [3] is: HA-SS18WT_CHR_peptides: protein identified in HA-SS18 WT BAF complex purification from nuclease-treated solubilized chromatin (CHR).

B1: HSDL1 (protein, UniProt Q3SXM5 2-330, looked up)
Inactive hydroxysteroid …: AAVDSFYLLYREIARSCNCYMEALALVGAWYTARKSITVICDFYSLIRLHFIPRLGSRADLIKQYGRWAVVSGATDGIGKAYAEELASRGLNIILISRNEEKLQVVAKDIADTYKVETDIIVADFSSGREIYLPIREALKDKDVGILVNNVGVFYPYPQYFTQLSEDKLWDIINVNIAAASLMVHVVLPGMVERKKGAIVTISSGSCCKPTPQLAAFSASKAYLDHFSRALQYEYASKGIFVQSLIPFYVATSMTAPSNFLHRCSWLVPSPKVYAHHAVSTLGISKRTTGYWSHSIQFLFAQYMPEWLWVWGANILNRSLRKEALSCTA
Regarding B1, under setting [1], the “Total (peptides)” value is reported as 1 and the “Unique (peptides)” value is recorded as 1.

B2: STT3B (protein, UniProt Q8TCJ2 2-826, looked up)
Dolichyl-diphosphooligosacchar …: AEPSAPESKHKSSLNSSPWSGLMALGNSRHGHHGPGAQCAHKAAGGAAPPKPAPAGLSGGLSQPAGWQSLLSFTILFLAWLAGFSSRLFAVIRFESIIHEFDPWFNYRSTHHLASHGFYEFLNWFDERAWYPLGRIVGGTVYPGLMITAGLIHWILNTLNITVHIRDVCVFLAPTFSGLTSISTFLLTRELWNQGAGLLAACFIAIVPGYISRSVAGSFDNEGIAIFALQFTYYLWVKSVKTGSVFWTMCCCLSYFYMVSAWGGYVFIINLIPLHVFVLLLMQRYSKRVYIAYSTFYIVGLILSMQIPFVGFQPIRTSEHMAAAGVFALLQAYAFLQYLRDRLTKQEFQTLFFLGVSLAAGAVFLSVIYLTYTGYIAPWSGRFYSLWDTGYAKIHIPIIASVSEHQPTTWVSFFFDLHILVCTFPAGLWFCIKNINDERVFVALYAISAVYFAGVMVRLMLTLTPVVCMLSAIAFSNVFEHYLGDDMKRENPPVEDSSDEDDKRNQGNLYDKAGKVRKHATEQEKTEEGLGPNIKSIVTMLMLMLLMMFAVHCTWVTSNAYSSPSVVLASYNHDGTRNILDDFREAYFWLRQNTDEHARVMSWWDYGYQIAGMANRTTLVDNNTWNNSHIALVGKAMSSNETAAYKIMRTLDVDYVLVIFGGVIGYSGDDINKFLWMVRIAEGEHPKDIRESDYFTPQGEFRVDKAGSPTLLNCLMYKMSYYRFGEMQLDFRTPPGFDRTRNAEIGNKDIKFKHLEEAFTSEHWLVRIYKVKAPDNRETLDHKPRVTNIFPKQKYLSKKTTKRKRGYIKNKLVFKKGKKISKKTV
On to B2, for which, under setting [1], the “Total (peptides)” value amounted to 1 and the “Unique (peptides)” value is 1. Besides, under setting [2], the “Total (peptides)” value was found to be 1 and the “Unique (peptides)” value came to 1.

B3: CDIPT (protein, UniProt O14735 1-213, looked up)
CDP-diacylglycerol--inositol …: MPDENIFLFVPNLIGYARIVFAIISFYFMPCCPLTASSFYLLSGLLDAFDGHAARALNQGTRFGAMLDMLTDRCSTMCLLVNLALLYPGATLFFQISMSLDVASHWLHLHSSVVRGSESHKMIDLSGNPVLRIYYTSRPALFTLCAGNELFYCLLYLFHFSEGPLVGSVGLFRMGLWVTAPIALLKSLISVIHLITAARNMAALDAADRAKKK
On to B3, for which the “Total (peptides)” value came out at 1 under setting [1] and 1 under setting [2]. Moreover, the “Unique (peptides)” value is, setting by setting: under setting [1], 1; under setting [2], 1.

B4: COPG2 (protein, UniProt Q9UBF2 1-871, looked up)
Coatomer subunit gamma-2: MIKKFDKKDEESGSGSNPFQHLEKSAVLQEARIFNETPINPRRCLHILTKILYLLNQGEHFGTTEATEAFFAMTRLFQSNDQTLRRMCYLTIKEMATISEDVIIVTSSLTKDMTGKEDVYRGPAIRALCRITDGTMLQAIERYMKQAIVDKVSSVSSSALVSSLHMMKISYDVVKRWINEAQEAASSDNIMVQYHALGVLYHLRKNDRLAVSKMLNKFTKSGLKSQFAYCMLIRIASRLLKETEDGHESPLFDFIESCLRNKHEMVIYEAASAIIHLPNCTARELAPAVSVLQLFCSSPKPALRYAAVRTLNKVAMKHPSAVTACNLDLENLITDSNRSIATLAITTLLKTGSESSVDRLMKQISSFVSEISDEFKVVVVQAISALCQKYPRKHSVMMTFLSNMLRDDGGFEYKRAIVDCIISIVEENPESKEAGLAHLCEFIEDCEHTVLATKILHLLGKEGPRTPVPSKYIRFIFNRVVLENEAVRAAAVSALAKFGAQNESLLPSILVLLQRCMMDTDDEVRDRATFYLNVLQQRQMALNATYIFNGLTVSVPGMEKALHQYTLEPSEKPFDMKSIPLAMAPVFEQKAEITLVATKPEKLAPSRQDIFQEQLAAIPEFLNIGPLFKSSEPVQLTEAETEYFVRCIKHMFTNHIVFQFDCTNTLNDQLLEKVTVQMEPSDSYEVLSCIPAPSLPYNQPGICYTLVRLPDDDPTAVAGSFSCTMKFTVRDCDPNTGVPDEDGYDDEYVLEDLEVTVSDHIQKVLKPNFAAAWEEVGDTFEKEETFALSSTKTLEEAVNNIITFLGMQPCERSDKVPENKNSHSLYLAGIFRGGYDLLVRSRLALADGVTMQVTVRSKERTPVDVILASVG
As for B4, under setting [1], the “Total (peptides)” value is recorded as 1 and the “Unique (peptides)” value was 1.

B5: ERAP1 (protein, UniProt Q9NZ08 1-941, looked up)
Endoplasmic reticulum …: MVFLPLKWSLATMSFLLSSLLALLTVSTPSWCQSTEASPKRSDGTPFPWNKIRLPEYVIPVHYDLLIHANLTTLTFWGTTKVEITASQPTSTIILHSHHLQISRATLRKGAGERLSEEPLQVLEHPRQEQIALLAPEPLLVGLPYTVVIHYAGNLSETFHGFYKSTYRTKEGELRILASTQFEPTAARMAFPCFDEPAFKASFSIKIRREPRHLAISNMPLVKSVTVAEGLIEDHFDVTVKMSTYLVAFIISDFESVSKITKSGVKVSVYAVPDKINQADYALDAAVTLLEFYEDYFSIPYPLPKQDLAAIPDFQSGAMENWGLTTYRESALLFDAEKSSASSKLGITMTVAHELAHQWFGNLVTMEWWNDLWLNEGFAKFMEFVSVSVTHPELKVGDYFFGKCFDAMEVDALNSSHPVSTPVENPAQIREMFDDVSYDKGACILNMLREYLSADAFKSGIVQYLQKHSYKNTKNEDLWDSMASICPTDGVKGMDGFCSRSQHSSSSSHWHQEGVDVKTMMNTWTLQKGFPLITITVRGRNVHMKQEHYMKGSDGAPDTGYLWHVPLTFITSKSDMVHRFLLKTKTDVLILPEEVEWIKFNVGMNGYYIVHYEDDGWDSLTGLLKGTHTAVSSNDRASLINNAFQLVSIGKLSIEKALDLSLYLKHETEIMPVFQGLNELIPMYKLMEKRDMNEVETQFKAFLIRLLRDLIDKQTWTDEGSVSERMLRSQLLLLACVHNYQPCVQRAEGYFRKWKESNGNLSLPVDVTLAVFAVGAQSTEGWDFLYSKYQFSLSSTEKSQIEFALCRTQNKEKLQWLLDESFKGDKIKTQEFPQILTLIGRNPVGYPLAWQFLRKNWNKLVQKFELGSSSIAHMVMGTTNQFSTRTRLEEVKGFFSSLKENGSQLRCVQQTIETIEENIGWMDKNFDKIRVWLQSEKLERM
B5: under setting [1], the “Total (peptides)” value came to 1 and the “Unique (peptides)” value came out at 1.

B6: PPT1 (protein, UniProt P50897 28-306, looked up)
Palmitoyl-protein …: DPPAPLPLVIWHGMGDSCCNPLSMGAIKKMVEKKIPGIYVLSLEIGKTLMEDVENSFFLNVNSQVTTVCQALAKDPKLQQGYNAMGFSQGGQFLRAVAQRCPSPPMINLISVGGQHQGVFGLPRCPGESSHICDFIRKTLNAGAYSKVVQERLVQAEYWHDPIKEDVYRNHSIFLADINQERGINESYKKNLMALKKFVMVKFLNDSIVDPVDSEWFGFYRSGQAKETIPLQETSLYTQDRLGLKEMDNAGQLVFLATEGDHLQLSEEWFYAHIIPFLG
B6: under setting [1], the “Total (peptides)” value came to 1 and the “Unique (peptides)” value came out at 1.

B7: ZIC2 (protein, UniProt O95409 1-532, looked up)
Zinc finger protein ZIC 2: MLLDAGPQFPAIGVGSFARHHHHSAAAAAAAAAEMQDRELSLAAAQNGFVDSAAAHMGAFKLNPGAHELSPGQSSAFTSQGPGAYPGSAAAAAAAAALGPHAAHVGSYSGPPFNSTRDFLFRSRGFGDSAPGGGQHGLFGPGAGGLHHAHSDAQGHLLFPGLPEQHGPHGSQNVLNGQMRLGLPGEVFGRSEQYRQVASPRTDPYSAAQLHNQYGPMNMNMGMNMAAAAAHHHHHHHHHPGAFFRYMRQQCIKQELICKWIDPEQLSNPKKSCNKTFSTMHELVTHVSVEHVGGPEQSNHVCFWEECPREGKPFKAKYKLVNHIRVHTGEKPFPCPFPGCGKVFARSENLKIHKRTHTGEKPFQCEFEGCDRRFANSSDRKKHMHVHTSDKPYLCKMCDKSYTHPSSLRKHMKVHESSPQGSESSPAASSGYESSTPPGLVSPSAEPQSSSNLSPAAAAAAAAAAAAAAAVSAVHRGGGSGSGGAGGGSGGGSGSGGGGGGAGGGGGGSSGGGSGTAGGHSGLSSNFNEWYV
Turning to B7, under setting [1], the “Total (peptides)” value came to 1 and the “Unique (peptides)” value came out at 1.

B8: TOR2A (protein, UniProt Q5JU69 27-321, looked up)
Torsin-2A: AWDLASLRCTLGAFCECDFRPDLPGLECDLAQHLAGQHLAKALVVKALKAFVRDPAPTKPLVLSLHGWTGTGKSYVSSLLAHYLFQGGLRSPRVHHFSPVLHFPHPSHIERYKKDLKSWVQGNLTACGRSLFLFDEMDKMPPGLMEVLRPFLGSSWVVYGTNYRKAIFIFISNTGGKQINQVALEAWRSRRDREEILLQELEPVISRAVLDNPHHGFSNSGIMEERLLDAVVPFLPLQRHHVRHCVLNELAQLGLEPRDEVVQAVLDSTTFFPEDEQLFSSNGCKTVASRIAFFL
For the molecule B8, the “Total (peptides)” value is, setting by setting: under setting [1], 1; under setting [2], 2. The “Unique (peptides)” value stood at 1 under setting [1] and 2 under setting [2].

B9: CDYL (protein, UniProt Q9Y232 1-598, looked up)
Chromodomain Y-like protein: MTFQASHRSAWGKSRKKNWQYEGPTQKLFLKRNNVSAPDGPSDPSISVSSEQSGAQQPPALQVERIVDKRKNKKGKTEYLVRWKGYDSEDDTWEPEQHLVNCEEYIHDFNRRHTEKQKESTLTRTNRTSPNNARKQISRSTNSNFSKTSPKALVIGKDHESKNSQLFAASQKFRKNTAPSLSSRKNMDLAKSGIKILVPKSPVKSRTAVDGFQSESPEKLDPVEQGQEDTVAPEVAAEKPVGALLGPGAERARMGSRPRIHPLVPQVPGPVTAAMATGLAVNGKGTSPFMDALTANGTTNIQTSVTGVTASKRKFIDDRRDQPFDKRLRFSVRQTESAYRYRDIVVRKQDGFTHILLSTKSSENNSLNPEVMREVQSALSTAAADDSKLVLLSAVGSVFCCGLDFIYFIRRLTDDRKRESTKMAEAIRNFVNTFIQFKKPIIVAVNGPAIGLGASILPLCDVVWANEKAWFQTPYTTFGQSPDGCSTVMFPKIMGGASANEMLLSGRKLTAQEACGKGLVSQVFWPGTFTQEVMVRIKELASCNPVVLEESKALVRCNMKMELEQANERECEVLKKIWGSAQGMDSMLKYLQRKIDEF
In the case of B9, under setting [1], the “Total (peptides)” value worked out at 1 and the “Unique (peptides)” value is given as 1. Under setting [3], the “Total (total peptides)” value stood at 1 and the “Unique (unique peptides)” value turned out to be 1.
